Among the data in paper PMC7819943, “Rice protein-binding microarrays: a tool to detect cis-acting elements near promoter regions in rice” are binding signal values, retold here.

Chains of the proteins cited; added tags and fusions are not shown.
UniProt Q0JBA9, entry or part of it: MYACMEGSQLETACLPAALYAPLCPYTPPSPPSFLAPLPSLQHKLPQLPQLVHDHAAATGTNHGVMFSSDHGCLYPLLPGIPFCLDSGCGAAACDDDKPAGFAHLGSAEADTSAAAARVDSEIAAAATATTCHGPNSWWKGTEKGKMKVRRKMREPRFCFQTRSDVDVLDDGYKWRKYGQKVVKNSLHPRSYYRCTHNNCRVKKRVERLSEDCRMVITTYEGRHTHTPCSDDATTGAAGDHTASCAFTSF

Some of the results follow.

This test addresses OsWRKY34 (Oryza sativa, UniProt Q0JBA9 1-250). Description: protein-binding microarray (RPBM); PBS, 2% BSA, 51.3 ng/ul salmon testes DNA, 50 uM zinc acetate, 200 nM TF, 25 C, 1 h; high values mean tight binding. The note with it: protein: recombinant; tags: N-terminal polyhistidine and DsRed monomer fusion (pET32a); label: CyDye5-dUTP incorporated in the synthesized complementary strand; 3' TTTTT single-stranded linker to array surface; dsDNA, one strand shown. An outline of the steps:
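Ni–NTA purification followed expression in E. coli BL21-CodonPlus of transcription factors fused N-terminally to a polyhistidine tag and DsRed. At 200 nM in PBS with 2% BSA, salmon testes DNA and 50 µM zinc acetate, the protein was incubated for 1 h at 25 °C with a custom Agilent array that had been primer-extended with Cy5-dUTP and blocked with 2% BSA. After washing, the array was read on an Axon 4000B scanner. The binding signal is per-feature fluorescence intensity in arbitrary units.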
“CTTGCCGGCCTCCACCGCTAATGTTTGTGCACACAGAAAACGGAGTCACCTAGTGCAG”: the binding signal was 8330 fluorescence intensity (a.u.).

In the case of “AACATTTACGTAATTATAATTTATTTTGTTATGAGTTGTTCGGAGTCACCTAGTGCAG”, the binding signal was 8830 fluorescence intensity (a.u.).

On to “GTAGTGCTAAAATTCTCTCATGTCTTCCTCTGCAACATATCGGAGTCACCTAGTGCAG”, for which the binding signal was 8390 fluorescence intensity (a.u.).

Consider “ACATTTTACTTACACTGTTTGGCCACTCGTCTTATTTAAACGGAGTCACCTAGTGCAG”, for which the binding signal was 9450 fluorescence intensity (a.u.).

With “TACTATTACTATTGGCAGTATGGCAGGCACGTATTTTTTTCGGAGTCACCTAGTGCAG”, the binding signal is 9260 fluorescence intensity (a.u.).

With “AGACGGACGGGAGGGGAGGGGTCCAAATTAAAACTCCAAACGGAGTCACCTAGTGCAG”, the binding signal is 10300 fluorescence intensity (a.u.).

In the case of “ATGAATCCCCAAGAGCTCTGTATCTCTCCATCCTGCTAAACGGAGTCACCTAGTGCAG”, the binding signal is 8370 fluorescence intensity (a.u.).

With “ATCGTCCATTTCGTTTTCCCTCCAGTGTTTCAGGAATTTACGGAGTCACCTAGTGCAG”, the binding signal is 9860 fluorescence intensity (a.u.).

Regarding “GAGCTCATTGTCTTCCCATCTCCCAACGCTATCATGGTGACGGAGTCACCTAGTGCAG”, the binding signal was 8230 fluorescence intensity (a.u.).

For “CCTTTTTCCCATGGTCACACTTGTTTCGTTTGGTCAAACACGGAGTCACCTAGTGCAG”, the binding signal was 11700 fluorescence intensity (a.u.).

As for “ACCAGCCGCTTCGCTTCGCCTCGATTCCAACCCTAGCCCTCGGAGTCACCTAGTGCAG”, the binding signal is 11100 fluorescence intensity (a.u.).

Take “GGTTTGTAGGATGTGACAATCCTAATTTTTTGTTTGGTTGCGGAGTCACCTAGTGCAG”: the binding signal was 10100 fluorescence intensity (a.u.).

Consider “ATACCTAGAAATTCCACAGTTTTCGCCATACCTGTTACCACGGAGTCACCTAGTGCAG”, for which the binding signal is 8820 fluorescence intensity (a.u.).

In the case of “CATGCGCTGAATGCTCTAAGTTTCTTTTCTTGTCTAATACCGGAGTCACCTAGTGCAG”, the binding signal was 8110 fluorescence intensity (a.u.).

Take “GCGGGCCCGATCTGAGGTGGTGGGAGGGAGGAAGGGATGTCGGAGTCACCTAGTGCAG”: the binding signal is 12700 fluorescence intensity (a.u.).

As for “CCTCGCTATCGCCAGCCGCGCTCCGCACCAGCCGTCGCTGCGGAGTCACCTAGTGCAG”, the binding signal was 9080 fluorescence intensity (a.u.).

On to “CGGGCGGGGTCGCGTGCAATGGTTTGTTTGTCAACCTCGGCGGAGTCACCTAGTGCAG”, for which the binding signal is 8800 fluorescence intensity (a.u.).

With “TGTTTGACACCGTTGACTTTTTAGTCGTGTTTGACCATTCCGGAGTCACCTAGTGCAG”, the binding signal is 24400 fluorescence intensity (a.u.).

As for “GAGATGGATGTGTGGTGATGGCCTAGGATGTGGGATGGATCGGAGTCACCTAGTGCAG”, the binding signal is 8160 fluorescence intensity (a.u.).

For “CTCTTCACATTGTCCTGCATATATCTTTTATATTCCAAGACGGAGTCACCTAGTGCAG”, the binding signal was 9690 fluorescence intensity (a.u.).

For the sequence “CCTCGAGTTTATTCTTTCCGTATCCATTTTGTGCTCTCATCGGAGTCACCTAGTGCAG”, the binding signal was 9860 fluorescence intensity (a.u.).

“AATGTTTGGGTTCGAATTTAGTGGGTGGGTTTGGAGTTTGCGGAGTCACCTAGTGCAG”: the binding signal was 12800 fluorescence intensity (a.u.).

Turning to “CTTGCATCACTACCAGTGCCAATCACAACTTTGCTTTCATCGGAGTCACCTAGTGCAG”, the binding signal is 11000 fluorescence intensity (a.u.).

For the sequence “CCTTGCTGATTTGGCACTTTGACAATTGACACGATCTATCCGGAGTCACCTAGTGCAG”, the binding signal is 8390 fluorescence intensity (a.u.).

Consider “CCCACTCCTCCTGTCTTGTTGCTCACTCACTCTGCTGGCACGGAGTCACCTAGTGCAG”, for which the binding signal is 8890 fluorescence intensity (a.u.).

Consider “CTTATATTTAACACCCAAATTCCCAAATCTCGTCCTTTTCCGGAGTCACCTAGTGCAG”, for which the binding signal is 8410 fluorescence intensity (a.u.).

Consider “TTAGGCTACTTATCTACTTGTACCCATCTGGCTTACACTACGGAGTCACCTAGTGCAG”, for which the binding signal was 8130 fluorescence intensity (a.u.).

For the sequence “AGAACAGATGAGTTAATACACAAGGTTAGCAGTATATTTTCGGAGTCACCTAGTGCAG”, the binding signal was 8790 fluorescence intensity (a.u.).

As to “TTGTATACTTGTAGTACTATCTATACTATTCTACTGCAACCGGAGTCACCTAGTGCAG”, the binding signal is 9230 fluorescence intensity (a.u.).

As for “TCGCTGCGGCTTTCAATTTCGCGGCTCGTGTTCTTCTCTTCGGAGTCACCTAGTGCAG”, the binding signal was 9490 fluorescence intensity (a.u.).

Take “ACTATTTAAACCCCACTCGAGCTCACTACTTTCCTCACCACGGAGTCACCTAGTGCAG”: the binding signal is 8950 fluorescence intensity (a.u.).

On to “TCCATGGGATTTGCCAGTTCTCAAGCACGGCTGTTTTTTTCGGAGTCACCTAGTGCAG”, for which the binding signal is 8660 fluorescence intensity (a.u.).

For “GTTCGTCTTATTTGAAAATTTTTTATGATTATTATTTTTACGGAGTCACCTAGTGCAG”, the binding signal is 10200 fluorescence intensity (a.u.).

Take “GTTTTGTCCCGCGTTGCATCTTTGACCCCATTGACTAGCTCGGAGTCACCTAGTGCAG”: the binding signal is 13100 fluorescence intensity (a.u.).

Regarding “CATACTCACTCCTCGGCTTCTCGTCGTGCTCTGCTCTGTGCGGAGTCACCTAGTGCAG”, the binding signal is 8250 fluorescence intensity (a.u.).

With “CACCCTTTTTGGATCACCACATTCCAGCTCTCCTGCTTTTCGGAGTCACCTAGTGCAG”, the binding signal was 8620 fluorescence intensity (a.u.).

For “GGTACCTGATTCAATTTATTTGTATGTATATTTTTAATTACGGAGTCACCTAGTGCAG”, the binding signal was 8820 fluorescence intensity (a.u.).

For “CAACGTTTAACCATCTGTCTTGTTTGAAAATTTTATGAAACGGAGTCACCTAGTGCAG”, the binding signal was 8060 fluorescence intensity (a.u.).

As for “GTCGCTATTCTTCTAGTCAAATGATTCAAAAAACGGATCACGGAGTCACCTAGTGCAG”, the binding signal is 8840 fluorescence intensity (a.u.).

For the sequence “CGCGCCACCTTCCCGCGCGGGTCGTATCCTGGGCATCCGTCGGAGTCACCTAGTGCAG”, the binding signal was 9380 fluorescence intensity (a.u.).

Turning to “ATTTTCTTTCTGCAAATGCTAATTACTTATATTAACATCCCGGAGTCACCTAGTGCAG”, the binding signal is 9270 fluorescence intensity (a.u.).

For the sequence “AGAGGGGTCGTGGTAATTTGGAGTCGGAATAATACACTTTCGGAGTCACCTAGTGCAG”, the binding signal was 9270 fluorescence intensity (a.u.).
